Laboratory results as given in paper PMC9319549, “Synthesis and Biological Evaluation of Imadazo[1,2-a]pyrazines as Anticancer and Antiviral Agents through Inhibition of CDK9 and Human Coronavirus” (Pharmaceuticals, 2022).

Columns and labels:
Experiment in all cases: cells
[1] = test system: colorectal cancer (HCT116); conditions: Homo sapiens, HCT-116, 48 h, read-out: IC50 HCT116
[2] = test system: chronic myelogenous leukaemia; conditions: K652, 48 h, read-out: IC50 K652
normal cells FHC = conditions: read-out: FHC IC50

CN[C@@H]1C[C@H]2O[C@@](C)([C@@H]1OC)n1c3ccccc3c3c4c(c5c6ccccc6n2c5c31)C(=O)NC4 [Staurosporine, reference compound]
IC50 [1]: 10.9 ± 0.26 µM | IC50 [2]: 22.1 ± 0.56 µM | IC50 (normal cells FHC): 38.2 ± 0.97 µM
